At least one structure is not confirmed: it was looked up by name or label, or the drawing left a doubt.
Experiments:
HIF2α mRNA in 786-O = experiment: qRT-PCR of HIF1α and HIF2α after fatty acid incubation; type: cell-based, human; conditions: 500 μM fatty acid for 24 hours
Method: RNA Isolation and Real Time Quantitative Polymerase Chain Reaction (qRT-PCR). Total RNA was extracted using TRIzol reagent (Invitrogen, Cat #15596018). The concentration and quality of RNA were determined using a NanoDrop 1000 spectrophotometer (Thermo). 500 ng of RNA was used to synthesize cDNA using the Quantabio qScript cDNA SuperMix (Quantabio, Cat #95048-100) according to the manufacturer's recommendations. The cDNA was diluted by 10-fold before used for qRT-PCR gene expression analysis. qRT-PCR was performed using Power SYBR Green PCR Master Mix (Applied Biosystems, Cat #4367659) and SYBR Green primers (Table 3). The Ct values of the gene of interest was normalized to the Ct value of the housekeeping control, β-actin. The fold change was then calculated using the 2^−ΔΔCt method. Sodium palmitate preparation and supplementation. To prepare BSA-palmitate conjugate, sodium palmitate (Thermo, Cat #P0500) was added to a NaCl solution and heated in a water bath while stirring. The hot palmitate solution was mixed with BSA solution, 5 mL at a time. The final volume was adjusted with 150 mM NaCl for 1 mM palmitate solution and pH was adjusted to 7.4. Sodium palmitate solution was added to cell at final concentration 500 μM and incubated for 24 hours.

[1] = test system: HIF1α mRNA in HepG2 cells; conditions: exogenous addition; cited from earlier work
[2] = test system: HIF2α and chemerin protein in 786-O and 769-P cells; experiment: Immunoblots of lysates after fatty acid treatment; type: cell-based, human; conditions: 500 μM fatty acid
Method: Protein Extraction and Western blotting. The cells were washed with 1× ice-cold PBS (GE, Cat #SH30256.01) once before they were lysed in RIPA lysis buffer (50 mM Tris-HCl, pH 7.5; 150 mM NaCl; 0.5% NP-40; 50 mM NaF) and scraped from the plate on ice. The RIPA lysis buffer contained 1:1000 1× protease inhibitor cocktail (Sigma-Aldrich) and 1:100 1× phosphatase inhibitor (Sigma-Aldrich). The lysates were passed through a 16G needle 15 times before they were centrifuged at 4° C. for 20 minutes at 20,000×g. The protein lysates were quantified using the Pierce BCA Protein Assay Kit (Thermo) according to the manufacturer's protocols and absorbance was measured using GloMax Discover Microplate Reader (Promega). Between 50 and 100 μg of protein samples were mixed with 5×SDS Laemmli loading buffer and boiled at 95° C. for 5 minutes. Proteins were separated using 4-20% SDS-PAGE gels (Bio-Rad) and transferred onto PVDF membrane (Millipore). The membrane was blocked with TBS-T supplemented with 5% non-fat dry milk primary antibody for 45 minutes at room temperature rocking before blotting with primary antibodies at 4° C. overnight. The membrane was washed in TB S-T 3 times with 5 minutes each and blotted in secondary antibodies at room temperature for 2 hours. An Azure 300 chemiluminescent western blot imaging system (Azure biosystems) was used to visualize the membrane. […]

CCCCCCCCCCCCCCCC(=O)O [palmitate]
HIF2α mRNA (HIF2α mRNA in 786-O): increases | HIF1α mRNA [1]: robust induction of HIF1α mRNA | HIF2α protein [2]: increased | chemerin protein [2]: increased
